Measured values published in the supplement of paper PMC10849652.
This is one part of the list.

Chains of the proteins cited; added tags and fusions are not shown. Lines headed by an entry give the natural chain unless they say otherwise; changes in a name come on top.
UniProt Q96NW7: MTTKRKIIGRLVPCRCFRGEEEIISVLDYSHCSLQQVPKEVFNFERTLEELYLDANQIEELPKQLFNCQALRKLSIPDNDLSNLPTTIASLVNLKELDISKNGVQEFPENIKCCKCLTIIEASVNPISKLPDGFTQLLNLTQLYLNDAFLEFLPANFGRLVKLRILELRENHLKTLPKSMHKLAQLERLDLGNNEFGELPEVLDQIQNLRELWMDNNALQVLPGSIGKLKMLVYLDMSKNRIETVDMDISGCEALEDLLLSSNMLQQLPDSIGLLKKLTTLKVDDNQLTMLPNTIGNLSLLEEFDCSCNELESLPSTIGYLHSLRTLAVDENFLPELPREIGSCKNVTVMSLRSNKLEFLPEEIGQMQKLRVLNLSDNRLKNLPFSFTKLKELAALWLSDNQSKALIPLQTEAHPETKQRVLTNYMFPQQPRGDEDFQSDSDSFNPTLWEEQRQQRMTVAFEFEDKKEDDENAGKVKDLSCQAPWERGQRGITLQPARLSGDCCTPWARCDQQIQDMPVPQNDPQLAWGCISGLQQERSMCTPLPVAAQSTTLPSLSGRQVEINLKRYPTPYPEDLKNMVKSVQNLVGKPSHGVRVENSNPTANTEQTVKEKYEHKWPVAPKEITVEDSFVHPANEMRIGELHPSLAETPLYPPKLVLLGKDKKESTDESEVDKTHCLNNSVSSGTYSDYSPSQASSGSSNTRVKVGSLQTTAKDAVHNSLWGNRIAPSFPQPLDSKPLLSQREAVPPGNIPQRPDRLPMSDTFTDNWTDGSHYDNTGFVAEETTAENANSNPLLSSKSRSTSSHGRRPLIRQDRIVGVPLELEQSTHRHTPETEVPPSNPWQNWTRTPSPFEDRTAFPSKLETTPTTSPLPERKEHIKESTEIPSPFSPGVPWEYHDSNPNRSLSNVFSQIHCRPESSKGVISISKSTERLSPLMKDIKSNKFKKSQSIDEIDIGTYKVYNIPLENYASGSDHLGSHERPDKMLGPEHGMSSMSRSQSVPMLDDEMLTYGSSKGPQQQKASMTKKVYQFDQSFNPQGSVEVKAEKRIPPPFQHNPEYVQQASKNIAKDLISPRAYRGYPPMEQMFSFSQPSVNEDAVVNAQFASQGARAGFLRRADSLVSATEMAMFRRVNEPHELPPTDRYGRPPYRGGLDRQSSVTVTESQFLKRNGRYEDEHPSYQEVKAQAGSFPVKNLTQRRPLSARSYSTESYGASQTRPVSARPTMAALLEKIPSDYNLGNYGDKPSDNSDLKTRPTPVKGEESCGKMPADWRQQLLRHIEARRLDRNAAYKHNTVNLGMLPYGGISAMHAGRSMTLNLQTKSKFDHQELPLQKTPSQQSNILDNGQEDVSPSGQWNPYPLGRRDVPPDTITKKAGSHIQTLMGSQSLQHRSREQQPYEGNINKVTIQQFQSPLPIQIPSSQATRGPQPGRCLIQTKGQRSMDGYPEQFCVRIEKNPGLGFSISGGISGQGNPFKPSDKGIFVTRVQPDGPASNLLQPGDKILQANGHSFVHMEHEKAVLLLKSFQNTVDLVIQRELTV
UniProt Q15334: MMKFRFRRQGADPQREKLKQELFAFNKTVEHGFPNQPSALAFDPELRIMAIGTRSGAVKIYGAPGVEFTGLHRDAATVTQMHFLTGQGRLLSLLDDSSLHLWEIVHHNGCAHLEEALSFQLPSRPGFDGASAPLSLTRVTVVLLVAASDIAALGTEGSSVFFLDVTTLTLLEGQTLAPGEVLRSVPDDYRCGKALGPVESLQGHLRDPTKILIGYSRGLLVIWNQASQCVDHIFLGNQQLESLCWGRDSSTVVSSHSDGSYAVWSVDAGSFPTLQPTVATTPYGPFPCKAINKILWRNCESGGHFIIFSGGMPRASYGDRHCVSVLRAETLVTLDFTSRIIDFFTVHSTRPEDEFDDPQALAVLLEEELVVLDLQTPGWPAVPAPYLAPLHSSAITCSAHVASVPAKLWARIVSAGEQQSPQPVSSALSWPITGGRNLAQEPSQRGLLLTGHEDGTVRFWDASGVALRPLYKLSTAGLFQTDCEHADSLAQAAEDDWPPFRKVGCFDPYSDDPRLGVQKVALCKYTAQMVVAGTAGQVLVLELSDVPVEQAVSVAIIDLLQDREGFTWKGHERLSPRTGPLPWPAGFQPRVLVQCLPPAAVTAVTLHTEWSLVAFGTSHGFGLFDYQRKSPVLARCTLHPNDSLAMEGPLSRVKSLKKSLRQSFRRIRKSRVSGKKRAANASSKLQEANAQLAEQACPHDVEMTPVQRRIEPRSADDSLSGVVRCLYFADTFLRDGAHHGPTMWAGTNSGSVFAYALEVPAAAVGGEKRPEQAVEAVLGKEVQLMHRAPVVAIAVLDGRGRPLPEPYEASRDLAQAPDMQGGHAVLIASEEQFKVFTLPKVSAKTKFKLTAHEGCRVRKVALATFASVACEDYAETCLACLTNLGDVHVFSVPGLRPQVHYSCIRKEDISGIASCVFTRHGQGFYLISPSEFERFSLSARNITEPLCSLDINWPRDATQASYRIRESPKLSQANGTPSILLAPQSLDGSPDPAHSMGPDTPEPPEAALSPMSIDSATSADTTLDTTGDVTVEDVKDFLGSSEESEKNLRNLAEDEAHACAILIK
UniProt Q92604: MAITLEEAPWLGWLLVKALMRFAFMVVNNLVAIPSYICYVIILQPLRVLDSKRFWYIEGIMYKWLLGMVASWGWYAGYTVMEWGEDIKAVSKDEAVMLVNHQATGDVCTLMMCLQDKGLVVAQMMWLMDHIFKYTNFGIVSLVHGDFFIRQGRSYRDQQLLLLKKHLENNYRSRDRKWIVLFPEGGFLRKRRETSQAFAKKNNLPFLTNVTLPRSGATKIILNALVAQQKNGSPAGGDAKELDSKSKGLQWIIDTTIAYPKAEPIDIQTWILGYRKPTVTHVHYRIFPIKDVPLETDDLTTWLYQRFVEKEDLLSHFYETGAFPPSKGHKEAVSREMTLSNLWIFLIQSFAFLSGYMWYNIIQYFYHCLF
UniProt P49257: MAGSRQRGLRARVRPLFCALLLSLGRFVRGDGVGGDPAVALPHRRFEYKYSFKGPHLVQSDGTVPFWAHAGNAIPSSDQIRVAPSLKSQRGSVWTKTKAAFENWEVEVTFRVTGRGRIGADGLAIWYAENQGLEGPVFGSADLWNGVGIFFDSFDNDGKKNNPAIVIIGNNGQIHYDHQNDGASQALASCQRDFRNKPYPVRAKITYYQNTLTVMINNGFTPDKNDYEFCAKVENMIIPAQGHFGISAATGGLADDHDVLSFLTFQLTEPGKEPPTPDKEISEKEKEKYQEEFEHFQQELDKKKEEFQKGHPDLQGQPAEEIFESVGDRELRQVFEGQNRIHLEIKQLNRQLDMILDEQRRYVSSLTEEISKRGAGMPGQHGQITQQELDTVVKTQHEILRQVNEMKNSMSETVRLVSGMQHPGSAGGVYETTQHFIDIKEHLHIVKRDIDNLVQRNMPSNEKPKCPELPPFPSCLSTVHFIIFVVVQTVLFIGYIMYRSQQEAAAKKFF
UniProt Q53QV2: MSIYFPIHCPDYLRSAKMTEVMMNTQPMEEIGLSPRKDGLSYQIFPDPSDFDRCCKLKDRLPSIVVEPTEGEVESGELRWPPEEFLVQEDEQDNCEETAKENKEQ
UniProt Q6PJG9: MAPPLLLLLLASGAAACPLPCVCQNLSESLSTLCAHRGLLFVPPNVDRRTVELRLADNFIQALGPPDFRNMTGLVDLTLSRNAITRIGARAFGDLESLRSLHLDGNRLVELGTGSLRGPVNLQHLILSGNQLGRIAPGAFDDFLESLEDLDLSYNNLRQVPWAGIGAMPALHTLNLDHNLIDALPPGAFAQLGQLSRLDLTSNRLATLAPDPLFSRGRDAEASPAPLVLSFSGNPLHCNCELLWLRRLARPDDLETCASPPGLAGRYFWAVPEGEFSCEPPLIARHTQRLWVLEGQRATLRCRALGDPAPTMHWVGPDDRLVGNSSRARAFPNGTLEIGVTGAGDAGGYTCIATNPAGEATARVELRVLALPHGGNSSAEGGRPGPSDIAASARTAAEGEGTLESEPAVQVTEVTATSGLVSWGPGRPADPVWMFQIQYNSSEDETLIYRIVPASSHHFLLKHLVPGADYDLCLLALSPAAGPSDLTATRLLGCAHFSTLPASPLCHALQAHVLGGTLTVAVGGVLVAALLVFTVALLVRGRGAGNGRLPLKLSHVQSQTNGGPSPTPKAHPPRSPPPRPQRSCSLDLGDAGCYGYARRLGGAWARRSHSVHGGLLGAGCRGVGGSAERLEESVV
UniProt O95835: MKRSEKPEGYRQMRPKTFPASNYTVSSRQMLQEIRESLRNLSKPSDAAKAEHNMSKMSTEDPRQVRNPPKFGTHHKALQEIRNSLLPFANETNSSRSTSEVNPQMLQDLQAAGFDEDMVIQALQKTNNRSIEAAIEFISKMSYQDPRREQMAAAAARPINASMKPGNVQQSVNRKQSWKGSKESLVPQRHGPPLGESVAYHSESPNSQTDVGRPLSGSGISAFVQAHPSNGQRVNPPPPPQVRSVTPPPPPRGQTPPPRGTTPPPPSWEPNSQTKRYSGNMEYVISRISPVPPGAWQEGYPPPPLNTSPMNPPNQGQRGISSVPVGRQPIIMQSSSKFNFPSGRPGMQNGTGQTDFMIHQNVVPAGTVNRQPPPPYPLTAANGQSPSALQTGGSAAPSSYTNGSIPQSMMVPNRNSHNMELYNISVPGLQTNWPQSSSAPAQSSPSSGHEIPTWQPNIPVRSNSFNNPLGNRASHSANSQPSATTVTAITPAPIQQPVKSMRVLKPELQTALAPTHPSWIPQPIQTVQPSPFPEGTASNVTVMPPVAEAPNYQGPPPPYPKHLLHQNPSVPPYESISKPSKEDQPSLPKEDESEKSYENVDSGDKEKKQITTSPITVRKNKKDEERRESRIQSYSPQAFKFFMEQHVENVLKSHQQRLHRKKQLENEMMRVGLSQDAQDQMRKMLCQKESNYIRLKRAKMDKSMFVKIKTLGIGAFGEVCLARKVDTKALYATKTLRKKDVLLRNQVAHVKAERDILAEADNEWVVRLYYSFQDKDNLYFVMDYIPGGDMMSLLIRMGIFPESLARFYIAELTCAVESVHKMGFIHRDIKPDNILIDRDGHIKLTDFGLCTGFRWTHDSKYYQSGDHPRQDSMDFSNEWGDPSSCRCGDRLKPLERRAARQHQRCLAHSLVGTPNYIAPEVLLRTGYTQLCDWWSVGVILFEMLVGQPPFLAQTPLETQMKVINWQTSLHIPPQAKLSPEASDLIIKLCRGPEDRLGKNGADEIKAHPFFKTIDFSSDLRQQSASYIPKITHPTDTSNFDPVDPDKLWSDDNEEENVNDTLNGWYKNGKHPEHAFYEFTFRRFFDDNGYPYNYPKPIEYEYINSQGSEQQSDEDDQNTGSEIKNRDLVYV
UniProt Q8N1G4: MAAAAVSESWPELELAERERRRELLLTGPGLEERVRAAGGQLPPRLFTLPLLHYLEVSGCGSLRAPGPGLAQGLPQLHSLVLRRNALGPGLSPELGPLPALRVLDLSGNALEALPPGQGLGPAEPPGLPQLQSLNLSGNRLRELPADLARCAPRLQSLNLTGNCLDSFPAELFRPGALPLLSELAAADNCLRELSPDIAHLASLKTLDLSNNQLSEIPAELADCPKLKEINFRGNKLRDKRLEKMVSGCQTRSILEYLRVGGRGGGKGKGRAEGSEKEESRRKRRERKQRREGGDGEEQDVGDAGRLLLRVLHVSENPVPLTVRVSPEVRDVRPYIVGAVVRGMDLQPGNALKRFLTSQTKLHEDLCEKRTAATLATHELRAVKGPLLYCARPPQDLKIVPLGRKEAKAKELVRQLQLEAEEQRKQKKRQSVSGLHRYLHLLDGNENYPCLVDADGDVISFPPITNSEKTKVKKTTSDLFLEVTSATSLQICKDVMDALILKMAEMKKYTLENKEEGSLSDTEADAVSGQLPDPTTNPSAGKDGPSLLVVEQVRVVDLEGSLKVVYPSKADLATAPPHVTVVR
UniProt P62312: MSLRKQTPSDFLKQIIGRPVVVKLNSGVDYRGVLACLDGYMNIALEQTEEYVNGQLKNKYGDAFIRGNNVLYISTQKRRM
UniProt Q9Y546: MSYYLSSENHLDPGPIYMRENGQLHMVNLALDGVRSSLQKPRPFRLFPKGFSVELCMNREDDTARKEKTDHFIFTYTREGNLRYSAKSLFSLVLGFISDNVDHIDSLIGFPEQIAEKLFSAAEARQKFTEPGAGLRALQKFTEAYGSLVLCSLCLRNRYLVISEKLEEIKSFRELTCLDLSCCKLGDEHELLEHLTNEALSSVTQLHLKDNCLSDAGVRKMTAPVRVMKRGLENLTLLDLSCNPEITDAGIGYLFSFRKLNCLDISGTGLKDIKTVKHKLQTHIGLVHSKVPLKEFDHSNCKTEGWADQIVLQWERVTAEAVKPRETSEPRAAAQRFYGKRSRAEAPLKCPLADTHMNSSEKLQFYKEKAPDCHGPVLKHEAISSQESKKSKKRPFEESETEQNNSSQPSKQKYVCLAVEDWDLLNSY

Key:
Assay in all cases: log2 fold change, soluble protein after heating vs DMSO (PISA); higher = thermal stabilisation; K562 lysate, 10 uM; active = over 0.2 and 3.5 SD of the protein, either way, in both replicates (recomputed)
[1] = compound: CN1CC[C@H](c2c(O)cc(O)c3c(=O)cc(-c4ccccc4Cl)oc23)[C@H](O)C1 [alvocidib]
Summary of the method: (§1)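 Quantification was by TMTpro 16plex LC-MS/MS with equalised channel sums, applied to the supernatant after 21,000xg for 90 min. Samples were crude K562 extract at 1 mg/mL protein in PBS pH 7.4 with 1 mM MgCl2, treated with 10 μM compound for 30 min, heated for 3 min across 48°C-58°C, pooled and brought to 0.5% NP-40 at 4°C. Values are log-two fold changes in thermal stability relative to solvent controls, from duplicates.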

[2] = compound: CN1CCc2c(c3ccccc3n2Cc2ccc(C(=O)NO)cc2)C1 [Tubastatin A]
Summary of the method: as §1

[3] = compound: CNC(=O)c1ccc(Nc2ncc(C(F)(F)F)c(NCc3nccnc3N(C)S(C)(=O)=O)n2)cc1 [defactinib]
Summary of the method: as §1

[4] = compound: CNc1nc(-c2ccc3c(N)n[nH]c3c2)cc(N2C[C@@H](C(=O)NC3CCCCC3)CC[C@H]2C)n1
Summary of the method: as §1

[5] = compound: COC(=O)N[C@@H](C)CNc1nccc(-c2cn(C(C)C)nc2-c2cc(Cl)cc(NS(C)(=O)=O)c2F)n1 [encorafenib]
Summary of the method: as §1

[6] = compound: COC(=O)[C@H](CCSC)NC(=O)C1=C(C=C(C=C1)NC[C@H](CS)N)C2=CC=CC=C2
Summary of the method: as §1

[7] = compound: COc1cc2nc(-c3cc(F)ccc3O)nc(N[C@@H]3CNC[C@H]3C(C)(C)O)c2cc1OC
Summary of the method: as §1

[8] = compound: CS(=O)(=O)CCNCc1ccc(-c2ccc3ncnc(Nc4ccc(OCc5cccc(F)c5)c(Cl)c4)c3c2)o1 [lapatinib]
Summary of the method: as §1

[9] = compound: CS(=O)(=O)N1CCN(Cc2cc3nc(-c4cccc5[nH]ncc45)nc(N4CCOCC4)c3s2)CC1 [pictilisib]
Summary of the method: as §1

[10] = compound: C[C@@H](Oc1cc(-c2cnn(C3CCNCC3)c2)cnc1N)c1c(Cl)ccc(F)c1Cl [crizotinib]
Summary of the method: as §1

[11] = compound: C[C@H](C1=CC=C(C=C1)C(=O)NC2=C3C=CNC3=NC=C2)N
Summary of the method: as §1

[12] = compound: C[C@H](Nc1ncnc2nc[nH]c12)c1cc2cccc(Cl)c2c(=O)n1-c1ccccc1 [duvelisib]
Summary of the method: as §1

[13] = compound: Cc1cc(Nc2cc(CN3CCOCC3)c3nc(C)c(Cc4ccc(Cl)cc4F)n3n2)n[nH]1 [gandotinib]
Summary of the method: as §1

[14] = compound: Cc1cc(Nc2cc(N3CCN(C)CC3)nc(Sc3ccc(NC(=O)C4CC4)cc3)n2)n[nH]1 [tozasertib]
Summary of the method: as §1

[15] = compound: Cc1ccc(-n2nc(C(C)(C)C)cc2NC(=O)Nc2ccc(OCCN3CCOCC3)c3ccccc23)cc1 [doramapimod]
Summary of the method: as §1

[16] = compound: Cc1ccc(NC(=O)c2ccc(CN3CC[C@H](N(C)C)C3)c(C(F)(F)F)c2)cc1Nc1nccc(-c2cncnc2)n1 [bafetinib]
Summary of the method: as §1

[17] = compound: Cc1cccc(CC(=O)N2CCc3c2ccc(-c2cn(C)c4ncnc(N)c24)c3F)n1
Summary of the method: as §1

[18] = compound: CNC(=O)C1=CC=CC=C1NC2=NC(=NC=C2Cl)NC3=C(C=C(C=C3)N4CCOCC4)OC
Summary of the method: as §1

[19] = compound: COc1cc(Nc2ncc3c(n2)-c2ccc(Cl)cc2C(c2c(F)cccc2OC)=NC3)ccc1C(=O)O [alisertib]
Summary of the method: as §1

[20] = compound: COc1cc2ncnc(Nc3ccc(F)c(Cl)c3)c2cc1OCCCN1CCOCC1 [gefitinib]
Summary of the method: as §1

Measured: log2 fold change

LRRC7 (UniProt Q96NW7)
inactive: [1] 0.069 | [2] 0.079 | [3] 0.251 | [4] 0.058 | [5] -0.103 | [6] 0.026 | [7] -0.016 | [8] -0.048 | [9] 0.041 | [10] 0.065 | [11] -0.025 | [12] 0.083 | [13] -0.07 | [14] -0.018 | [15] 0.001 | [16] 0.112 | [17] 0.093

LLGL1 (UniProt Q15334)
active: [11] 0.263
inactive: [1] 0.026 | [2] -0.105 | [18] 0.032 | [3] -0.013 | [4] -0.034 | [5] 0.052 | [6] 0.108 | [19] -0.032 | [7] 0.121 | [20] -0.065 | [8] -0.005 | [9] -0.058 | [10] -0.025 | [12] 0.096 | [13] -0.011 | [14] 0.054 | [15] 0.006 | [16] -0.104 | [17] -0.019

LPGAT1 (UniProt Q92604)
inactive: [1] 0.123 | [2] 0.026 | [18] -0.094 | [4] 0.087 | [5] 0.205 | [6] 0.051 | [19] 0.155 | [20] 0.227 | [11] 0.034 | [12] -0.067 | [13] -0.143 | [14] -0.094 | [17] -0.009

LMAN1 (UniProt P49257)
inactive: [1] 0.012 | [2] 0.045 | [18] -0.006 | [3] 0.024 | [4] 0.046 | [5] 0.057 | [6] -0.045 | [19] -0.036 | [7] 0.017 | [20] 0.024 | [8] -0.007 | [9] 0.005 | [10] 0 | [11] 0.064 | [12] 0.01 | [13] -0.063 | [14] 0.049 | [15] 0.036 | [16] -0.047 | [17] 0.023

LBH (UniProt Q53QV2)
inactive: [1] 0.087 | [2] 0.143 | [18] 0.147 | [4] -0.057 | [5] -0.11 | [6] 0.063 | [11] -0.019 | [12] 0.037 | [13] -0.095 | [14] -0.126 | [17] -0.114

LRFN4 (UniProt Q6PJG9)
inactive: [1] 0.064 | [18] 0.098 | [3] 0.027 | [4] -0.141 | [5] -0.025 | [6] -0.151 | [7] 0.049 | [8] 0.162 | [10] -0.028 | [11] -0.002 | [12] 0.012 | [13] -0.139 | [14] 0.024 | [15] 0.079 | [17] 0.074

LATS1 (UniProt O95835)
inactive: [1] -0.045 | [18] 0.085 | [4] 0.069 | [19] 0.171 | [20] 0.045 | [11] 0.215 | [12] -0.071 | [13] -0.206 | [17] 0.077

LRRC47 (UniProt Q8N1G4)
inactive: [1] -0.007 | [2] 0.051 | [18] -0.02 | [3] -0.003 | [4] -0.002 | [5] -0.016 | [6] -0.002 | [19] 0.009 | [7] -0.008 | [20] -0.048 | [8] 0 | [9] -0.008 | [10] 0.029 | [11] -0.047 | [12] 0 | [13] 0.014 | [14] -0.024 | [15] 0.01 | [16] 0.007 | [17] 0.018

LSM6 (UniProt P62312)
inactive: [1] 0.045 | [2] 0.003 | [18] -0.008 | [3] -0.009 | [4] 0.005 | [5] -0.02 | [6] -0.018 | [19] 0.03 | [7] 0.003 | [20] -0.014 | [8] -0.015 | [9] -0.002 | [10] 0.065 | [11] 0.029 | [12] 0.019 | [13] -0.021 | [14] -0.018 | [15] -0.054 | [16] 0.031 | [17] -0.092

Two entries picked at random from those above, as already listed:
LMAN1 (UniProt P49257)
inactive: [1] 0.012 | [2] 0.045 | [18] -0.006 | [3] 0.024 | [4] 0.046 | [5] 0.057 | [6] -0.045 | [19] -0.036 | [7] 0.017 | [20] 0.024 | [8] -0.007 | [9] 0.005 | [10] 0 | [11] 0.064 | [12] 0.01 | [13] -0.063 | [14] 0.049 | [15] 0.036 | [16] -0.047 | [17] 0.023

LATS1 (UniProt O95835)
inactive: [1] -0.045 | [18] 0.085 | [4] 0.069 | [19] 0.171 | [20] 0.045 | [11] 0.215 | [12] -0.071 | [13] -0.206 | [17] 0.077

(next part)

LRRC42 (UniProt Q9Y546)
inactive: [1] 0.028 | [2] -0.005 | [18] 0.165 | [3] 0.024 | [4] -0.077 | [5] 0.112 | [6] -0.289 | [19] -0.042 | [20] 0.014 | [10] -0.011 | [11] 0.044 | [12] -0.004 | [13] -0.149 | [14] 0.125 | [15] 0.005 | [17] -0.045
